# Reference: the supplement of paper PMC11348887
# Structures can show the parent of a compound that is named as a salt. The list shows a part of the results. Small differences around the control level are noise. Where a SMILES comes first, the peptide text is derived from it. Bridges are numbered along the chain shown (N, C = ends). [ ]: non-standard residue; d: D form. The star is where a group is joined. Ileψ(thiazoline)Cys = CC[C@H](C)[C@H](N)C1=N[C@H](C(=O)*)CS1; dOrn = NCCC[C@@H](N)C(=O)O
# System: hPSC-derived cortical neurons (WA09)
# Experiment: nucleus roundness z-score vs screen plate; higher = rounder nuclei (more mature)
# Conditions: 5 µM; treatment: days 7-14 after plating, readout day 21
row,SMILES,nucleus roundness z-score
1,O=C(CCc1ccc(O)cc1)c1c(O)cc(O)cc1O [Phloretin],0.0178
2,CCN(CC)Cc1ccc2cc(COC(=O)Nc3ccc(C(=O)NO)cc3)ccc2c1 [Givinostat (ITF2357)],-5.66
3,COc1cc(OCc2cccc(-c3ccccc3)c2C)cc(OC)c1CN1CCCC[C@H]1C(=O)O [PD-1/PD-L1 inhibitor 1],1.02
4,O=C(Cc1ccc(-c2ccc(OCCN3CCOCC3)cc2)cn1)NCc1ccccc1,-6.99
5,CC/C(=C(\c1ccc(O)cc1)c1ccc(OCCNC)cc1)c1ccccc1 [Endoxifen HCl],-3.64
6,C[C@H](CCC(=O)O)[C@H]1CC[C@H]2[C@@H]3[C@@H](O)C[C@@H]4C[C@H](O)CC[C@]4(C)[C@H]3CC[C@]12C [Ursodiol],-1.47
7,C[C@H](CCC(=O)O)[C@H]1CC[C@H]2[C@@H]3CC[C@@H]4C[C@H](O)CC[C@]4(C)[C@H]3CC[C@]12C [Lithocholic acid],0.299
8,Cc1cccc(Nc2nc(-c3ccncc3)cs2)c1,2.01
9,CCCN[C@H]1CCc2nc(N)sc2C1 [Pramipexole 2HCl Monohydrate],-1.53
10,O=C(CCCN1CCC(O)(c2ccc(Cl)cc2)CC1)c1ccc(F)cc1 [Haloperidol],-0.789
11,Cc1ccsc1C(=CCCN1CCC[C@@H](C(=O)O)C1)c1sccc1C [Tiagabine],0.294
12,CC(=O)OCC(=O)[C@@]1(O)CC[C@H]2[C@@H]3CCC4=CC(=O)C=C[C@]4(C)[C@H]3[C@@H](O)C[C@@]21C [Prednisolone Acetate],-0.463
13,COc1cc(C(=O)N2CCC(N3CCN(C)CC3)CC2)ccc1Nc1ncc2c(n1)N(C)c1ccccc1C(=O)N2C,-3.04
14,Cn1c(Nc2ccc(C(F)(F)F)cc2)nc2cc(Oc3ccnc(-c4ncc(C(F)(F)F)[nH]4)c3)ccc21,-1.8
15,CC1CNc2c(cccc2S(=O)(=O)N[C@@H](CCCNC(=N)N)C(=O)N2CC[C@@H](C)C[C@@H]2C(=O)O)C1 (stereo not given in full) [Argatroban],-0.000867
16,CC(C(=O)O)c1ccc(C(=O)c2cccs2)cc1 (stereo not given) [Suprofen],-0.309
17,S=C(NCc1ccc2c(c1)OCO2)N1CCN(c2ncnc3c2oc2ccccc23)CC1 [Amuvatinib (MP-470)],0.93
18,Cc1ccc(NC(=O)C2(c3ccc4c(c3)OC(F)(F)O4)CC2)nc1-c1cccc(C(=O)O)c1 [VX-809 (Lumacaftor)],0.00757
19,C=CC(=O)Nc1cc(Nc2nccc(-c3cn(C)c4ccccc34)n2)c(OC)cc1N(C)CCN(C)C,-4.14
20,CC[C@H](C)[C@H](N)C1=N[C@H](C(=O)N[C@@H](CC(C)C)C(=O)N[C@H](CCC(=O)O)C(=O)N[C@H](C(=O)N[C@H]2CCCCNC(=O)[C@H](CC(N)=O)NC(=O)[C@@H](CC(=O)O)NC(=O)[C@H](Cc3cnc[nH]3)NC(=O)[C@@H](Cc3ccccc3)NC(=O)[C@H]([C@@H](C)CC)NC(=O)[C@@H](CCCN)NC2=O)[C@@H](C)CC)CS1 [Bacitracin] ({Ileψ(thiazoline)Cys}-L[dE]IK[dOrn]I[dF]H[dD]N; lactam 4-C),-0.499

# Filtered by structure, those above with a carbonyl joined to an NH by a bond outside any ring.
row,SMILES,nucleus roundness z-score
2,CCN(CC)Cc1ccc2cc(COC(=O)Nc3ccc(C(=O)NO)cc3)ccc2c1 [Givinostat (ITF2357)],-5.66
4,O=C(Cc1ccc(-c2ccc(OCCN3CCOCC3)cc2)cn1)NCc1ccccc1,-6.99
18,Cc1ccc(NC(=O)C2(c3ccc4c(c3)OC(F)(F)O4)CC2)nc1-c1cccc(C(=O)O)c1 [VX-809 (Lumacaftor)],0.00757
19,C=CC(=O)Nc1cc(Nc2nccc(-c3cn(C)c4ccccc34)n2)c(OC)cc1N(C)CCN(C)C,-4.14
20,CC[C@H](C)[C@H](N)C1=N[C@H](C(=O)N[C@@H](CC(C)C)C(=O)N[C@H](CCC(=O)O)C(=O)N[C@H](C(=O)N[C@H]2CCCCNC(=O)[C@H](CC(N)=O)NC(=O)[C@@H](CC(=O)O)NC(=O)[C@H](Cc3cnc[nH]3)NC(=O)[C@@H](Cc3ccccc3)NC(=O)[C@H]([C@@H](C)CC)NC(=O)[C@@H](CCCN)NC2=O)[C@@H](C)CC)CS1 [Bacitracin] ({Ileψ(thiazoline)Cys}-L[dE]IK[dOrn]I[dF]H[dD]N; lactam 4-C),-0.499

# (continued)

row,SMILES,nucleus roundness z-score
1,CCNC(=O)c1noc(-c2cc(C(C)C)c(O)cc2O)c1-c1ccc(CN2CCOCC2)cc1,0.0424
2,CN1CCN(c2ccc3nc(-c4c(N)c5c(F)cccc5[nH]c4=O)[nH]c3c2)CC1 [Dovitinib (TKI258) Lactate],-11.6
3,COc1ccc2cc1Oc1ccc(cc1)C[C@H]1c3c(cc4c(c3Oc3cc5c(cc3OC)CCN(C)[C@@H]5C2)OCO4)CCN1C [Cepharanthine],-6.38
4,CC/C(=C(/CC)c1ccc(O)cc1)c1ccc(O)cc1 [Diethylstilbestrol],1.13
5,NC(=O)c1cccc2cn(-c3ccc([C@@H]4CCCNC4)cc3)nc12 [Niraparib (MK-4827) tosylate],1.18
6,Cc1cc(C)cc(C(=O)NOCCCCCC(=O)NO)c1,-6.88
7,CCOC(=O)C1=C[C@]2(CC)CCCN3CCc4c(n1c1ccccc41)[C@@H]32 [Vinpocetine],0.363
8,COc1ccc(CN2CCN(C(c3ccc(F)cc3)c3ccc(F)cc3)CC2)c(OC)c1OC [Lomerizine HCl],-2.1
9,Cc1cc(Cl)ccc1OCCCC(=O)NO [Droxinostat],-0.142
10,O=c1c(O)c(-c2ccc(O)cc2O)oc2cc(O)cc(O)c12 [Morin Hydrate],-0.132
11,COc1nc(OCc2cccc(-c3ccccc3)c2C)ccc1CNCCNC(C)=O [PD-1/PD-L1 inhibitor 2],-3.33
12,CCC1=C[C@@H]2CN(C1)Cc1c([nH]c3ccccc13)[C@@](C(=O)OC)(c1cc3c(cc1OC)N(C)[C@H]1[C@@](O)(C(=O)OC)[C@H](OC(C)=O)[C@]4(CC)C=CCN5CC[C@]31[C@@H]54)C2 [Vinorelbine Tartrate],-7.12
13,COc1ccnc2[nH]cc(C(=O)C(=O)N3CCN(C(=O)c4ccccc4)C[C@H]3C)c12,0.121
14,CN(C)c1ccc(O)c2c1C[C@H]1C[C@H]3[C@H](N(C)C)C(O)=C(C(N)=O)C(=O)[C@@]3(O)C(O)=C1C2=O [Minocycline HCl],-0.251
15,CCCCc1nc(Cl)c(CO)n1Cc1ccc(-c2ccccc2-c2nnn[nH]2)cc1 [Losartan Potassium (DuP 753)],0.0365
16,COC[C@H](NC(=O)c1cnc(C)s1)C(=O)N[C@@H](COC)C(=O)N[C@@H](Cc1ccccc1)C(=O)[C@@]1(C)CO1 [Oprozomib (ONX 0912)],-4.24
17,CN1C2=CC(=O)/C(=N\NC(N)=O)C=C2CC1S(=O)(=O)O (stereo not given) [Carbazochrome sodium sulfonate (AC-17)],-0.273
18,C[C@H](CCC(=O)O)[C@H]1CC[C@H]2[C@@H]3CC[C@@H]4C[C@H](O)CC[C@]4(C)[C@H]3C[C@H](O)[C@]12C [Deoxycholic acid],0.133
19,C/C(=N\NC(=O)c1cccc(S(=O)(=O)N2CCOCC2)c1)c1cc(Cl)ccc1O,0.564
20,Cc1cc(C2CCCCC2)n(O)c(=O)c1 [Ciclopirox ethanolamine],-3.05
